Results published in the supplement of paper PMC12067093, “Discovery and optimisation of a covalent ligand for TRIM25 and its application to targeted protein ubiquitination” (Chemical Science, 2025).
The other results are listed elsewhere or left out.

Compound: CC1Cc2ccccc2N1C(=O)C1CCCN(C1)C(=O)CCl (mixture of isomers) [TRIM25 ligand 11 (diastereomer mixture)]
Experiment: probe-labelled cysteine peptide fold change vs DMSO (competition) (log2 fold change); higher = less target engagement (more negative = stronger competition)
Settings: THP-1, incubation time: 4 h
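Also: competitive chemoproteomic profiling in live THP-1 cells with an iodoacetamide desthiobiotin (IA-DTB) probe, comparing probe-labelled peptide intensities in compound-treated cells against DMSO-treated controls.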

Target | probe-labelled cysteine peptide fold change (10 µM) | probe-labelled cysteine peptide fold change (50 µM)
DNAJB11_Q9UBS4_196_FQMTQEVVCDECPNVK (UniProt Q9UBS4) | -0.00478 | 0.0543
DNASE1L1_P49184_187_DVILLGDFNADCASLTK (UniProt P49184) | 0.161 | 0.0579
DNAJB12_Q9NXW2_363_MGTPSCSR (UniProt Q9NXW2) | -0.244 | -0.0858
DNAJA1_P31689_150+153_GAVECCPNCR (UniProt P31689) | 0.0372 | 0.0338
DHX15_O43143_307_FQIYFDNCPLLTIPGR (UniProt O43143) | 0.253 | 0.215
DNAJA1_P31689_153_GAVECCPNCR (UniProt P31689) | -0.148 | 0.0385
DIAPH2_O60879_283_ILSAICIVGEENILDK (UniProt O60879) | 0.111 | 0.118
DISC1_Q9NRI5_844_EAAASCMTAGVHEAQA (UniProt Q9NRI5) | -0.074 | -0.261
DHX8_Q14562_1062_FSNPWCYENFIQAR (UniProt Q14562) | -0.00411 | -0.118
DHX37_Q8IY37_456_TPLEDYSGECFR (UniProt Q8IY37) | 0.0427 | -0.00573
DLAT_P10515_164_DVPIGAIICITVGKPEDIEAFK (UniProt P10515) | -0.0624 | -0.0699
DIDO1_Q9BTC0_296_CEEWFHGDCVGISEAR (UniProt Q9BTC0) | 0.116 | -0.082
DIS3L2_Q8IYB7_196_LSVCVSEK (UniProt Q8IYB7) | 0.096 | -0.0214
DHX16_O60231_932_VEVGLSSCQGDYIR (UniProt O60231) | 0.0609 | -0.0152
DIAPH1_O60610_437_LIEECISQIVLHK (UniProt O60610) | 0.122 | 0.115
DLD_P09622_477_VLGAHILGPGAGEMVNEAALALEYGASCEDIAR (UniProt P09622) | 0.0386 | 0.162
DHX30_Q7L2E3_1183_GPCGSFDVR (UniProt Q7L2E3) | 0.093 | 0.0215
DHX8_Q14562_1108_AICSGFFR (UniProt Q14562) | -0.0633 | -0.149
DNAJC7_Q99615_58_AIDMCPK (UniProt Q99615) | -0.0221 | 0.137
DICER1_Q9UPY3_443_EKPETNFPSPFTNILCGIIFVER (UniProt Q9UPY3) | 0.029 | -0.018

Record cards, from the list above:
DLAT_P10515_164_DVPIGAIICITVGKPEDIEAFK (UniProt P10515) in the list: probe-labelled cysteine peptide fold change (10 µM): -0.0624; probe-labelled cysteine peptide fold change (50 µM): -0.0699
DHX8_Q14562_1108_AICSGFFR (UniProt Q14562) in the list: probe-labelled cysteine peptide fold change (10 µM): -0.0633; probe-labelled cysteine peptide fold change (50 µM): -0.149

Next part.

Target | probe-labelled cysteine peptide fold change (10 µM) | probe-labelled cysteine peptide fold change (50 µM)
DIAPH1_O60610_1027_MTLLHFLAELCENDYPDVLK (UniProt O60610) | 0.0711 | 0.0888
DMAC2_Q9NW81_184_LYPLADSLQELSLAGCPR (UniProt Q9NW81) | -0.0317 | -0.00224
DGLUCY_Q7Z3D6_316_GIGHLLCKDELLK (UniProt Q7Z3D6) | -0.338 | -0.199
DLST_P36957_245_EAQNTCAMLTTFNEIDMSNIQEMR (UniProt P36957) | 0.0231 | -0.0362
DHX37_Q8IY37_616_LCVVATNVAETSLTIPGIK (UniProt Q8IY37) | -0.0366 | 0.0989
DHX38_Q92620_1028_NNNYSTIWCNDHFIHAK (UniProt Q92620) | 0.121 | 0.111
DIAPH3_Q9NSV4_464_LIDECVSQIVLHR (UniProt Q9NSV4) | 0.0814 | 0.0797
DNAJC7_Q99615_7_AAAAECDVVMAATEPELLDDQEAKR (UniProt Q99615) | -0.0553 | -0.0303
DHRS7_Q9Y394_233_TELATYPGIIVSNICPGPVQSNIVENSLAGEVTK (UniProt Q9Y394) | -0.0824 | 0.0763
DNAJC7_Q99615_164_KVVFCMDR (UniProt Q99615) | -0.158 | -0.0673
DIDO1_Q9BTC0_1449_MCADVR (UniProt Q9BTC0) | -0.0543 | -0.242
DNAJB1_P25685_267_EALCGCTVNVPTLDGR (UniProt P25685) | 0.0532 | 0.0369
DNAJC16_Q9Y2G8_375_LFHELCPVKR (UniProt Q9Y2G8) | -0.0102 | 0.0535
DNM1L_O00429_367_ICYIFHETFGR (UniProt O00429) | 0.0757 | -0.178
DNAJC13_O75165_820_YECLAEEIK (UniProt O75165) | 0.367 | 0.248
DNAJA4_Q8WW22_272_IQLSEALCGFKK (UniProt Q8WW22) | -0.206 | -0.106
DMXL1_Q9Y485_551_SIMMYACTK (UniProt Q9Y485) | 0.0718 | -0.0716
DHX30_Q7L2E3_673_GEPGGILCFLPGWQEIK (UniProt Q7L2E3) | 0.411 | 0.466
DHX38_Q92620_1074_CICAAYFHQAAK (UniProt Q92620) | 0.0376 | -0.113
